# Values from PubChem BioAssay AID1159578 (Peter MacCallum Cancer Centre, 2015).
# Assay: 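Knock-downs that alter how fast lymphatic endothelial cells migrate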 (primary screen)
# System: human lymphatic endothelial cells
# Knock-down reagent: siRNA pool against human genes, 40 nM
# Duration: 48 h after transfection
# Measured: 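High-content imaging of dye-stained cells in a scratch assay measures filled wound area and nuclei per well; duplicate means given as ratio to mock and robust z-score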
# Direction: migration robust z-score: higher = faster migration into the scratch; migration relative to mock: higher = more scratch area covered than mock; nuclei per well: higher = more cells in the well
# Rule for the call: 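Pools averaging fewer than 3300 nuclei are never called; remaining pools count as changed when migration robust z lies outside -2 to 2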
# Meaning of the calls: active = migration changed; inactive = no migration change, or too few cells
# Here is an unselected part of about 18,000 reagents. About 1,030 of them (5.7%) were called active. 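Inactive calls also include pools with fewer than 3300 nuclei, whose migration was not assessed.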 Raw values vary from plate to plate and are shown uncorrected.
target,migration robust z-score,migration class with cell-count check,migration relative to mock,"nuclei per well, duplicate mean",activity call
OSBPL11,-0.75,migration z between -2 and 2; enough cells,0.69,6056,inactive
CYP26A1,-0.57,migration z between -2 and 2; enough cells,0.7,5300,inactive
CLIC3,-0.36,migration z between -2 and 2; enough cells,0.74,4467,inactive
CRYGB,1.67,migration z between -2 and 2; enough cells,1.31,5833,inactive
CLDN11,0.19,migration z between -2 and 2; enough cells,0.94,6074,inactive
EIF2AK2,-0.24,migration z between -2 and 2; enough cells,0.76,6064,inactive
HIF3A,-1.22,migration z between -2 and 2; enough cells,0.57,4345,inactive
RGS13,-0.44,migration z between -2 and 2; enough cells,0.77,5789,inactive
CPLX3,1.44,migration z between -2 and 2; enough cells,1.25,5880,inactive
PLA2R1,-1.24,migration z between -2 and 2; enough cells,0.56,4880,inactive
BRD10,0.5,migration z between -2 and 2; enough cells,1.02,6072,inactive
FCF1,-0.6,migration z between -2 and 2; enough cells,0.73,4306,inactive
ARG1,-0.05,migration z between -2 and 2; enough cells,0.8,5714,inactive
PACSIN1,-0.08,migration z between -2 and 2; enough cells,0.79,5226,inactive
SPHK2,-1.61,migration z between -2 and 2; enough cells,0.5,4952,inactive
NPAS2,0,migration z between -2 and 2; enough cells,0.8,4942,inactive
OR2AG2,-1.89,migration z between -2 and 2; enough cells,0.4,4993,inactive
JHY,-2.4,migration z below -2; enough cells,0.26,5744,active
SLC35E3,-0.04,migration z between -2 and 2; enough cells,0.87,5642,inactive
DPM1,-0.5,migration z between -2 and 2; enough cells,0.71,5654,inactive
TRIM32,-1.79,migration z between -2 and 2; enough cells,0.46,5864,inactive
RNF14,1.3,migration z between -2 and 2; enough cells,1.06,6442,inactive
H2AC7,-0.54,migration z between -2 and 2; enough cells,0.74,6608,inactive
OR10J3,0,migration z between -2 and 2; enough cells,0.88,6008,inactive
ZNF468,0.19,migration z between -2 and 2; enough cells,0.94,5717,inactive
GRIK1,0.49,migration z between -2 and 2; enough cells,0.9,5071,inactive
DPAGT1,2.64,migration z above 2; enough cells,1.31,4452,active
SAPCD1,0.34,migration z between -2 and 2; enough cells,0.98,6570,inactive
CASR,1.2,migration z between -2 and 2; enough cells,1.04,6350,inactive
AR,-0.49,migration z between -2 and 2; enough cells,0.71,7074,inactive
EIF2D,-1.08,migration z between -2 and 2; enough cells,0.6,6444,inactive
TBXA2R,-1.02,migration z between -2 and 2; enough cells,0.61,5614,inactive
CYSLTR1,-0.91,migration z between -2 and 2; enough cells,0.63,7562,inactive
DNAJB3P,-0.12,migration z between -2 and 2; enough cells,0.85,6296,inactive
NAPB,-1.58,migration z between -2 and 2; enough cells,0.5,5218,inactive
HEATR4,0.12,migration z between -2 and 2; enough cells,0.91,5632,inactive
GPR148,0.11,migration z between -2 and 2; enough cells,0.82,4576,inactive
IKZF4,-0.18,migration z between -2 and 2; enough cells,0.84,5622,inactive
SPTBN4,-1.03,migration z between -2 and 2; enough cells,0.62,6458,inactive
SPOUT1,-0.12,migration z between -2 and 2; enough cells,0.85,6852,inactive
LCN12,0.76,migration z between -2 and 2; enough cells,0.95,6360,inactive
C2CD2,-0.82,migration z between -2 and 2; enough cells,0.67,5868,inactive
DNAJC3,-1.87,migration z between -2 and 2; enough cells,0.4,4496,inactive
ARL8A,0.1,migration z between -2 and 2; enough cells,0.91,6150,inactive
SLC19A3,0.8,migration z between -2 and 2; enough cells,1.09,8281,inactive
TOB2,-0.45,migration z between -2 and 2; enough cells,0.76,5716,inactive
MZF1,1.32,migration z between -2 and 2; enough cells,1.06,6093,inactive
POU6F2,0.8,migration z between -2 and 2; enough cells,1.1,4740,inactive
ARMC1,-0.2,migration z between -2 and 2; enough cells,0.84,6415,inactive
SHLD2,0.46,migration z between -2 and 2; enough cells,1,5640,inactive
GPRC5D,-1.22,migration z between -2 and 2; enough cells,0.57,6186,inactive
PIK3R6,1.31,migration z between -2 and 2; enough cells,1.23,5876,inactive
CCHCR1,0.92,migration z between -2 and 2; enough cells,1.12,5799,inactive
SLC2A5,-1.04,migration z between -2 and 2; enough cells,0.61,5092,inactive
OR10A4,0.61,migration z between -2 and 2; enough cells,1.04,6415,inactive
CAMSAP2,0.57,migration z between -2 and 2; enough cells,1.03,5259,inactive
SLC22A1,0,migration z between -2 and 2; enough cells,0.8,4585,inactive
MED27,-2.16,migration z below -2; enough cells,0.39,4210,active
PSMA3,0.52,migration z between -2 and 2; enough cells,0.9,5472,inactive
MAP1A,-0.66,migration z between -2 and 2; enough cells,0.72,5424,inactive
CDH16,-0.77,migration z between -2 and 2; enough cells,0.66,4785,inactive
PTRH2,0.71,migration z between -2 and 2; enough cells,1.07,6467,inactive
TRHR,-2,migration z between -2 and 2; enough cells,0.42,4712,inactive
ZNF510,0.3,migration z between -2 and 2; enough cells,0.96,5795,inactive
PMM2,-0.31,migration z between -2 and 2; enough cells,0.74,5124,inactive
FGF11,0.54,migration z between -2 and 2; enough cells,0.91,6462,inactive
CHKB,-0.2,migration z between -2 and 2; enough cells,0.76,6723,inactive
MARCHF11,1.06,migration z between -2 and 2; enough cells,1.01,6117,inactive
SPART,1.42,migration z between -2 and 2; enough cells,1.25,5832,inactive
C5orf46,0.14,migration z between -2 and 2; enough cells,0.92,4776,inactive
B4GAT1,-0.18,migration z between -2 and 2; enough cells,0.77,4776,inactive
GGA3,1.23,migration z between -2 and 2; enough cells,1.21,5146,inactive
KLHL3,-2,under 3300 nuclei; migration not judged,0.38,2991,inactive

Individual results from the list:
Under “nuclei per well, duplicate mean”, MARCHF11 is entered as 6117
Entry for EIF2D under “migration class with cell-count check”: migration z between -2 and 2; enough cells
Under “nuclei per well, duplicate mean”, SAPCD1 has 6570
Result of SLC2A5 under “nuclei per well, duplicate mean”: 5092
Result for CLDN11 in “migration relative to mock”: 0.94
DPM1, migration relative to mock: 0.71
